This test has as its target Ezh2 (Enhancer of zeste homolog 2, the catalytic subunit of PRC2) (human (endogenous in iPSC-derived cardiomyocytes)) (UniProt Q15910). Put plainly: co-IP; endogenous Lamin A/C and Ezh2 in CNTR-CMs and K219T-CMs; an unrelated IgG antibody as negative control; performed as in ref. 51, detailed protocol in the Supplementary Methods.

The chains behind the UniProt entries cited, without tags or fusion partners. Where a name states a change or a piece, a line headed by the entry shows the natural chain unless it says otherwise. A line that says so, or that is headed by a name, gives the form on record, which may keep a tag or linker. Residues count along the entry.
UniProt Q15910: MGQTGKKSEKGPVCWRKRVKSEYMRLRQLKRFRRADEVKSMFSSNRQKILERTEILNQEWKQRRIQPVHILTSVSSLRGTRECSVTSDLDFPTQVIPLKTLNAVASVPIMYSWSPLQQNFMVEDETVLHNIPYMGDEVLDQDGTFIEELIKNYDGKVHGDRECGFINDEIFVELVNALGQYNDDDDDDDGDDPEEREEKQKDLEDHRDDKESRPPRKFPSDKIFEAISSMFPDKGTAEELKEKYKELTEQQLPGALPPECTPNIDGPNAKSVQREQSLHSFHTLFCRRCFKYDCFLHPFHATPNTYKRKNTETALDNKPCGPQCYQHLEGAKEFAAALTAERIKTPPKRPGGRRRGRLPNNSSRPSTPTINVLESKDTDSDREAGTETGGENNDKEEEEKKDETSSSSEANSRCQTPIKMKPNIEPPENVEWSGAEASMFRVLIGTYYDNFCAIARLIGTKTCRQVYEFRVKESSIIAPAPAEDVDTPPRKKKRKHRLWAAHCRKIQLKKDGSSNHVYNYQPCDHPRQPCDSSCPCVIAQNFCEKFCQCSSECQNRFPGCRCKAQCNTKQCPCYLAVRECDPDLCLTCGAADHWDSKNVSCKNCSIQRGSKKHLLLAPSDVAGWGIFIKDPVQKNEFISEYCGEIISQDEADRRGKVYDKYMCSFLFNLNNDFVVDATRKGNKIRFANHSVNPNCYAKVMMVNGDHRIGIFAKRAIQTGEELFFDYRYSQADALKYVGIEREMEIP
Lamin A/C (wild type) (P02545, residues 1-646): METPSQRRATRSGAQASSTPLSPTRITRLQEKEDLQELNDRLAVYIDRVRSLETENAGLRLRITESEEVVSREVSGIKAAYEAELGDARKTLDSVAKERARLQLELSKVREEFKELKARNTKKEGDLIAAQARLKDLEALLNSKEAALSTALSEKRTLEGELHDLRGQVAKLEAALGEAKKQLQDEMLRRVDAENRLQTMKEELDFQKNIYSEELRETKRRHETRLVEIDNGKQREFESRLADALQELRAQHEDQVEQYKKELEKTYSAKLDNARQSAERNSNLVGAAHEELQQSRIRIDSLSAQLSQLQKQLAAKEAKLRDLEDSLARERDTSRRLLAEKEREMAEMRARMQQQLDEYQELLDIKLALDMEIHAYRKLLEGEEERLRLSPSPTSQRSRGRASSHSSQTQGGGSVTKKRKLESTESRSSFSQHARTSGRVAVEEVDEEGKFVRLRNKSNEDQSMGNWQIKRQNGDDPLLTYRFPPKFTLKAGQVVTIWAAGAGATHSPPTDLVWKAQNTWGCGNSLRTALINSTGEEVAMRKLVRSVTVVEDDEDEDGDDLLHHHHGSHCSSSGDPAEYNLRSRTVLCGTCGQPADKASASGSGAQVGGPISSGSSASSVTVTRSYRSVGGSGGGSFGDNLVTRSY
K219T-Lamin A/C (P02545, form named): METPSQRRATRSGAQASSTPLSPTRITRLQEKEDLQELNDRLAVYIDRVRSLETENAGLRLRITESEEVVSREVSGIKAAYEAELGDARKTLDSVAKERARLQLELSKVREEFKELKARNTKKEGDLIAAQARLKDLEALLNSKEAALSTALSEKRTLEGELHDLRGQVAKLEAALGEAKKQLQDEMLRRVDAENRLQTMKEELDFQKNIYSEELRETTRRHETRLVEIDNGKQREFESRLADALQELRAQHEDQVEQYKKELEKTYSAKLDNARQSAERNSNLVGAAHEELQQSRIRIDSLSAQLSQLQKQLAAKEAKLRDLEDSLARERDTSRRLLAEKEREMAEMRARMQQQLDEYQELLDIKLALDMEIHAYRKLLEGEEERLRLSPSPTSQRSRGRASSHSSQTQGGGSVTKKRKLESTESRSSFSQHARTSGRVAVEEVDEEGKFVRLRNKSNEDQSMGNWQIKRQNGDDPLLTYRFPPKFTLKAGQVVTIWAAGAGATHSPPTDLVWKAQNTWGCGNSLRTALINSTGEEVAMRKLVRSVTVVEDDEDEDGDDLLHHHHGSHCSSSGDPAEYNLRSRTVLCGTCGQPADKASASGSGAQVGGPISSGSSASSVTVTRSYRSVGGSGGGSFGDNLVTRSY

These are yes or no findings as the source states them, for the method shown. In cells and extracts the contact can be indirect. Some results given as binding are weak or reduced against the parent protein; the word gives no strength.

Turning to “K219T-Lamin A/C (from UniProt P02545 1-646)”, the binding result was “binds”. With “Lamin A/C (wild type) (from UniProt P02545 1-646)” the entry was “binds”.

The values are drawn from paper PMC6531493.
